Experimental data: PubChem BioAssay AID1508597 (Cure First, 2020)
Shown is a random part of the about 2,100 reagents, in one setting of the screen. 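Calls flag viability under 80% in either arm, not effects specific to rucaparib; the reference for percent is not stated.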 Unmarked entries are inactive. A reagent listed more than once was tested more than once; the source does not tell the runs apart. Reagent sequences are not shown. Not stated in the record: the 100% reference.

Screen: 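Knock-downs altering ovarian cancer cell survival with or without PARP inhibitor rucaparib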 (primary screen)
Cells: human ovarian carcinoma lines grown from tumours: OCI-P5x (papillary serous) and OCI-C5x (clear cell)
Knock-down reagent: siRNA pool against human genes, 1.25 pmol siRNA per well
Duration: 72 h or 96 h, depending on the cell culture
Conditions: rucaparib 20 µM (about IC30) or vehicle, present until read-out
Rucaparib or vehicle: Rucaparib
Cell line: OCI-C5x (clear cell)
Measurement: 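ATP luminescence measured at 72 or 96 h according to the culture, then normalised and expressed as percent viability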
Direction: viability, normalised: higher = more viable cells remaining
Rule for the call: 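Active when normalised viability falls below 80 percent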
Meaning of the calls: active = viability under 80%; inactive = viability 80% or more

target gene,PubChem SID,technical replicate,"viability, normalised (%)"
HMGN5,SID405526881,1,58.5 (active)
HMGN5,SID405526881,2,55 (active)
HMGN5,SID405526881,3,62.6 (active)
WEE1,SID405526432,1,23.5 (active)
WEE1,SID405526432,1,35.1 (active)
WEE1,SID405526432,2,24.6 (active)
WEE1,SID405526432,2,40.6 (active)
WEE1,SID405526432,3,26.8 (active)
WEE1,SID405526432,3,16.6 (active)
NTRK3,SID405527399,1,63.1 (active)
NTRK3,SID405527399,2,61.9 (active)
NTRK3,SID405527399,3,69.9 (active)
EIF4A2,SID405526748,1,31.9 (active)
EIF4A2,SID405526748,2,38.8 (active)
EIF4A2,SID405526748,3,29.5 (active)
PASK,SID405528540,1,39.8 (active)
PASK,SID405528540,2,49.9 (active)
PASK,SID405528540,3,43 (active)
PCDHB6,SID405527128,1,70.3 (active)
PCDHB6,SID405527128,2,45.1 (active)
PCDHB6,SID405527128,3,38.5 (active)
URI1,SID405526315,1,68.9 (active)
URI1,SID405526315,2,73.4 (active)
URI1,SID405526315,3,69.4 (active)
RBBP5,SID405527232,1,41.1 (active)
RBBP5,SID405527232,2,48.1 (active)
RBBP5,SID405527232,3,44.4 (active)
RALY,SID405528328,1,40.3 (active)
RALY,SID405528328,2,50 (active)
RALY,SID405528328,3,40.8 (active)
TDRKH,SID405526549,1,44.3 (active)
TDRKH,SID405526549,2,53.8 (active)
TDRKH,SID405526549,3,44.3 (active)
UHRF1,SID405526606,1,54.4 (active)
UHRF1,SID405526606,1,56.1 (active)
UHRF1,SID405526606,2,43.6 (active)
UHRF1,SID405526606,2,40.8 (active)
UHRF1,SID405526606,3,48.8 (active)
UHRF1,SID405526606,3,42 (active)
SMAD3,SID405527323,1,48.2 (active)
SMAD3,SID405527323,2,41.8 (active)
SMAD3,SID405527323,3,47.3 (active)
NUAK1,SID405528528,1,54 (active)
NUAK1,SID405528528,2,34 (active)
NUAK1,SID405528528,3,53 (active)
IRS2,SID405526375,1,48.5 (active)
IRS2,SID405526375,2,57.4 (active)
IRS2,SID405526375,3,62.5 (active)
RAD54B,SID405527222,1,63.9 (active)
RAD54B,SID405527222,1,60.9 (active)
RAD54B,SID405527222,2,43.3 (active)
RAD54B,SID405527222,2,50.5 (active)
RAD54B,SID405527222,3,57.1 (active)
RAD54B,SID405527222,3,65.5 (active)
PIKFYVE,SID405527835,1,60.7 (active)
PIKFYVE,SID405527835,2,52 (active)
PIKFYVE,SID405527835,3,55.8 (active)

Entries above whose gene name starts with U or u:
target gene,PubChem SID,technical replicate,"viability, normalised (%)"
URI1,SID405526315,1,68.9 (active)
URI1,SID405526315,2,73.4 (active)
URI1,SID405526315,3,69.4 (active)
UHRF1,SID405526606,1,54.4 (active)
UHRF1,SID405526606,1,56.1 (active)
UHRF1,SID405526606,2,43.6 (active)
UHRF1,SID405526606,2,40.8 (active)
UHRF1,SID405526606,3,48.8 (active)
UHRF1,SID405526606,3,42 (active)
